This test addresses endogenous LvSTING in shrimp hemocytes (Litopenaeus vannamei (endogenous in shrimp hemocytes)). The test is described as follows: co-IP.

These are yes or no findings as the source states them, for the method shown. In cells and extracts the contact can be indirect. Binding can be weak; no strength is given.

On to “endogenous LvIRF in shrimp hemocytes (from UniProt A0A0R6M5F1)”, for which the binding result is on record as “binds”.

The record behind these values is article doi:10.1101/2022.12.18.520954.
